From patent US11484534B2, “Methods for treating HCV” (priority 2013, dated 2022)
Some results were stated once for a whole list of compounds, not compound by compound.

Test: Phase 1 drug-drug interaction study with sofosbuvir in healthy subjects
Conditions: coadministered with sofosbuvir
Experimental: Intensive pharmacokinetic assessments were performed on Study Days 1 and 7 in each period. […] Safety was evaluated through assessment of adverse events, vital signs, ECGs and clinical laboratory tests.

## CC(C)(C)[C@@H]1NC(=O)O[C@@H]2CCC[C@H]2OC/C=C/C(F)(F)c2nc3ccccc3nc2O[C@@H]2C[C@@H](C(=O)N[C@]3(C(=O)NS(=O)(=O)C4(C)CC4)C[C@H]3C(F)F)N(C2)C1=O [Compound 1]
  exposures, difference: ≤ 16%
